Source: the supplement of paper PMC12889115
The list shows a part of the results. These are raw signals, not scaled to a control.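 In the initial screen, polymyxin B was used at a concentration that permeabilizes Salmonella's outer membrane but not its inner membrane. Maximum growth was set by DMSO wells with or without polymyxin B. Since plates varied, data were ranked per plate, and compounds giving the lowest OD600 advanced as hits.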

System: Salmonella enterica serovar Typhimurium SL1344
Assay: bacterial growth OD600 after 18 h with compound and polymyxin B; higher = more bacterial growth (less inhibition)
Details: 50 µM, Mueller-Hinton broth

SMILES | bacterial growth OD600 (polymyxin B 0.75 µg/mL) | bacterial growth OD600 (polymyxin B 1 µg/mL)
COc1cccc(-c2cnc(-c3ccncc3)nc2C2CCN(Cc3ccc(OC)c(C)c3)CC2)c1 | 0.816 | 
COc1cc(CN2CCN(Cc3cccc4c3OCO4)CC2CCO)cc(OC)c1 (stereo not given) |  | 1.03
O=C(CC12CC3CC(CC(C3)C1)C2)N1CCCC(CO)(Cc2ccc(F)cc2)C1 (stereo not given) | 0.139 | 
COC(=O)CCCC(=O)N1CCC(CCC(=O)Nc2cccc(OC)c2)CC1 |  | 0.888
CC(Cc1ccccn1)NC(=O)CN1Cc2ccccc2OC(c2ccccc2F)C1 (stereo not given) | 0.003 | 
O=C(c1coc(Cn2cnc3ccccc32)n1)N1CCC(C2CCCCC2)C1 (stereo not given) |  | 0.012
Cc1ccccc1-n1ncc(C(C)NC(=O)C2CC2)c1C (stereo not given) |  | 0.946
Cc1nc(N2CCC(C(=O)NCC3CC3)CC2)nc2cc(S(C)(=O)=O)ccc12 | 0.805 | 
CCn1ccnc1CN1CCCC(CCc2ccc(OC)cc2)C1 (stereo not given) | 0.834 | 
COc1ccc(C(=O)N2CCOc3c(cc(-c4cccnc4)cc3OCCc3cccs3)C2)c(OC)c1 | 0.092 | 
c1ccc(C(CC2CN(Cc3c[nH]cn3)CCO2)c2ccccc2)cc1 (stereo not given) | 0.542 | 
O=C(c1cccs1)C1CCCN(Cc2nc(CCc3ccccc3)no2)C1 (stereo not given) |  | 1.03
COCc1noc(-c2ccc(N3CCCOCC3)nc2)n1 |  | 0.993
Cc1cc2nc(N3CCC(C(=O)NC4CCOC4)CC3)nc(C)c2cc1C (stereo not given) | 0.778 | 
CN(CC1CCCN(CCc2cccc(C(F)(F)F)c2)C1)C(=O)CCn1cnnn1 (stereo not given) | 0.855 | 
COCc1ccc(C(=O)NCc2cccnc2-n2cnc3ccccc32)o1 |  | 0.844
CC(=O)c1ccc(C(=O)N2CCC3(CCCN(CCc4ccccc4)C3)C2)s1 (stereo not given) |  | 0.521
c1cc(CN(CCN2CCCCC2)CC2CCCN(C3CCCC3)C2)no1 (stereo not given) |  | 0.932
CSc1cccc(CN2CCCC(CNC(=O)c3cccs3)C2)c1 (stereo not given) |  | 0.709
CCC(=O)N1CCCC(c2nc(-c3cccnc3)ncc2-c2ccccc2F)C1 (stereo not given) | 0.821 | 

A second format for some results above:
O=C(CC12CC3CC(CC(C3)C1)C2)N1CCCC(CO)(Cc2ccc(F)cc2)C1 (stereo not given)
  bacterial growth OD600 (polymyxin B 0.75 µg/mL): 0.139
O=C(c1coc(Cn2cnc3ccccc32)n1)N1CCC(C2CCCCC2)C1 (stereo not given)
  bacterial growth OD600 (polymyxin B 1 µg/mL): 0.012
